Reference: paper PMC12914543
No constants are given. Whether binding was seen depends on the method and setting. In cells and extracts the contact can be indirect. Some results given as binding are weak or reduced against the parent protein; the word gives no strength.

Chains of the proteins cited; added tags and fusions are not shown. Residues count along the entry.
UniProt O15455, residues 24-904: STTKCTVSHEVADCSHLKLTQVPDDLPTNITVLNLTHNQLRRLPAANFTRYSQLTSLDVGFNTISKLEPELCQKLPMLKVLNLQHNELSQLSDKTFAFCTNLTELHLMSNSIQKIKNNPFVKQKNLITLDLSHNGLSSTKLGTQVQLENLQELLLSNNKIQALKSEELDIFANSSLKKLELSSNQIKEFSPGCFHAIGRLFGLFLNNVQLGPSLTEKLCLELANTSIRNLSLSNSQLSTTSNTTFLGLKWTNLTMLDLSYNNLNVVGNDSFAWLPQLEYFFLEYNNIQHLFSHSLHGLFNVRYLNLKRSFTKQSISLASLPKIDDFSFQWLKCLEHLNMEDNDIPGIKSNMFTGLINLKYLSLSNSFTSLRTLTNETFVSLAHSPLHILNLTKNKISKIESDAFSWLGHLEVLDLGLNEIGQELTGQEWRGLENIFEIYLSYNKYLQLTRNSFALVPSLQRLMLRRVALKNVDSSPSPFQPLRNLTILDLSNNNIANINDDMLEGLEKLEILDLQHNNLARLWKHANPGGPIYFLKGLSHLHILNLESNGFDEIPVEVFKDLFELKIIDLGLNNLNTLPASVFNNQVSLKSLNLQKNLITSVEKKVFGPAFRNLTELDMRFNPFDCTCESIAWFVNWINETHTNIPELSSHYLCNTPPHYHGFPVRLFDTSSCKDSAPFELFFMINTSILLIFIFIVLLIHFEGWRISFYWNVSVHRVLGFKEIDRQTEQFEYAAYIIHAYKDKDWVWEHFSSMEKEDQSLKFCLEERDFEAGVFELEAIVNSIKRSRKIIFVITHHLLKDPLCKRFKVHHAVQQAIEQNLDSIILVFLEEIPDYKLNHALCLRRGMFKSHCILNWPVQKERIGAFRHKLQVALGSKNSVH

T1: high-mobility group box 3 (HMGB3) (human (endogenous in ECA109 and EC9706)) (UniProt O15347)
T1 sequence: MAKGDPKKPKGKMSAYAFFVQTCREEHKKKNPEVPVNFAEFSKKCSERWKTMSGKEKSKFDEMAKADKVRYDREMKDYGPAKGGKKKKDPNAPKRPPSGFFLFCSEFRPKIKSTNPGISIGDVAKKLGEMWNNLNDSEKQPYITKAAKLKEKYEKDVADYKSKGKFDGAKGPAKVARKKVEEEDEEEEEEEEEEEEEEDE


What was measured:
[1] = molecular target: T1, high-mobility group box 3 (HMGB3) (human (endogenous in ECA109 and EC9706)); assay: co-IP; reciprocal co-IP of endogenous proteins; non-denaturing lysates of ECA109 and EC9706 cells, anti-HMGB3 or anti-TLR3 antibody, protein A/G Sepharose overnight at 4 °C, Western blot
[2] = molecular target: toll-like receptor 3 (TLR3) (human (endogenous in ECA109 and EC9706)) (UniProt O15455); assay: as above
[3] = molecular target: His-tagged wild-type TLR3 (UniProt O15455); assay: co-IP; co-IP with His-tagged wild-type or mutant TLR3 from expression plasmids; anti-His-tag antibody listed for Co-IP; Western blot

Row | binding [1] | binding [2] | binding [3] | Molecule
1 | binds |  |  | toll-like receptor 3 (TLR3) (from UniProt O15455 24-904)
2 |  | binds | binds | high-mobility group box 3 (HMGB3) (protein, UniProt O15347 1-200) MAKGDPKKPKGKMSAYAFFVQTCREEHKKKNPEVPVNFAEFSKKCSERWKTMSGKEKSKFDEMAKADKVRYDREMKDYGPAKGGKKKKDPNAPKRPPSGFFLFCSEFRPKIKSTNPGISIGDVAKKLGEMWNNLNDSEKQPYITKAAKLKEKYEKDVADYKSKGKFDGAKGPAKVARKKVEEEDEEEEEEEEEEEEEEDE
